Assay results as given in PubChem BioAssay AID493201 (National Center for Advancing Translational Sciences (NCATS), 2011).
Inconclusive means that the source gave no clear call. Such entries were picked first, then a sample of the others. A potency beside an inconclusive call is a rough fit, not a confirmed value. Activity calls are given as the source filed them. Calls follow the shape of the dose curve; as a rule, active = well fitted activation curve with a large enough effect; inconclusive = small, poorly fitted or top-dose-only effect; inactive = no such curve, though single readings can be large or run the other way.
Potency is read from the fitted curve at half-maximal effect.

Experiment: qHTS Assay for Identifying a Potential Treatment of Ataxia-Telangiectasia: Secondary assay (no NCS) hit validation;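 also: phosphorylated KAP1 signal as a proxy for ATM-like kinase activity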; as to activation: 0% is about no effect
Settings: A-T patient fibroblasts, AlphaLISA, no DNA damage added, 90 min; series mostly up to 76.9 µM; activation: at the top concentration
Outline: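 hTERT-immortalized A-T patient fibroblasts ([…]), 500 cells/well, exposed to compounds at up to 76.7 uM final without NCS at 37C. KAP-1 phosphorylation measured by AlphaLISA after lysis and 6 h detection at 25C.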
In the case of `Cc1cc2nc3ccc(=[N+](C)C)cc-3sc2cc1N`, the “activation” value is reported as inactive: -1.69%. With `CC(C)(C=O)C1=CC(=O)c2ccccc2C1=O` the Potency was active: 51.9 µM. With `COc1ccc(-c2nn(-c3ccccc3)cc2/C=C/C(=O)O)cc1[N+](=O)[O-]` the Potency was inconclusive: 32.8 µM [activator, single point]. For `C=C(C)n1c(=O)n(Cc2ccccc2C)c2ccccc21`, the “activation” value was inactive: 23.7%. In the case of `CC(CCc1ccccc1)NC(=O)COC(=O)c1ccc(F)cc1` (configuration not stated), the Potency is reported as inconclusive: 18.4 µM [activator, partial curve, poor fit]. For `CC(=O)Nc1ccc(NC2=C(Cl)C(=O)c3ccccc3C2=O)cc1`, the Potency was inconclusive: 16.4 µM [activator, partial curve]. With `CCCCC(=O)NC(c1ccco1)c1c(O)ccc2ccccc12` (configuration not stated) the Potency was inconclusive: 0.232 µM [activator, full curve, poor fit]. For `CCS(=O)(=O)N1Cc2ccccc2CC1C(=O)Nc1cccc(OC)c1` (configuration not stated), the Potency was inconclusive: 18.4 µM [activator, partial curve]. With `O=S(=O)(C/C(=C/CO)S(=O)(=O)c1ccccc1)c1ccccc1` the Potency was inconclusive: 0.0823 µM [activator, full curve, poor fit]. In the case of `COc1ccc(C2c3ccc(O)cc3Oc3ncn(CC(C)C)c(=N)c32)cc1` (configuration not stated), the Potency is reported as inconclusive: 0.0519 µM [activator, full curve, poor fit]. For `COC1=C(N)C(=O)c2nc(-c3nc(C(=O)O)c(C)c(-c4ccc(OC)c(OC)c4O)c3N)ccc2C1=O`, the Potency was inconclusive: 16.4 µM [activator, full curve, poor fit]. With `COc1ccc2c(c1)cc(C(=O)N[C@H](C(=O)N1CCC(C(=O)O)CC1)C(C)C)n2C` the Potency was inconclusive: 29.2 µM [activator, partial curve]. With `Cc1ccc2c(c1)C(c1ccccc1)N(C(=O)CC(C)C)CC(=O)N2` (configuration not stated) the Potency was inconclusive: 18.4 µM [activator, partial curve, poor fit]. With `COc1cc(/C=C2\CCOC2=O)cc(OC)c1OC` the “activation” value was inactive: 10.8%. For `O=C(CSc1nnc(CNC(=O)c2ccccc2)o1)NCCc1ccccc1`, the “activation” value was inactive: 22.6%. For `O=C(CN1CCN(Cc2ccccc2)CC1)Nc1ccc(Cl)cc1`, the Potency was inconclusive: 0.0733 µM [activator, full curve, poor fit]. In the case of `COC(=O)N/N=C/c1ccccc1OCCOc1ccc(OC)cc1`, the Potency is reported as inconclusive: 1.3 µM [activator, full curve, poor fit]. With `CC1CC(C)CN(C(=O)COC(=O)c2c[nH]c3ccccc23)C1` (configuration not stated) the Potency was inconclusive: 26 µM [activator, partial curve, poor fit]. With `C=Cc1c(C)c2cc3[nH]c(cc4nc(cc5nc(cc1[nH]2)C(C)=C5CCC(=O)O)C(CCC(=O)O)=C4C)c(C)c3C=C` the Potency was inconclusive: 16.4 µM [activator, full curve]. With `COc1ccc(-c2nc3n(c2C)Cc2ccccc2-3)cc1` the Potency was inconclusive: 0.0823 µM [activator, full curve, poor fit]. For `Cc1oc2c(c(C)cc3oc(=O)c(CC(=O)NCC(=O)NCC(=O)O)c(C)c32)c1C`, the Potency was active: 3.28 µM. With `Cn1c(=O)[nH]c(=O)c2[nH]c(N(Cc3ccccc3)Cc3ccccc3)nc21` the Potency was inconclusive: 16.4 µM [activator, single point]. With `O=C(CNCc1cccs1)Nc1cc(S(=O)(=O)N2CCCC2)ccc1Cl` the “activation” value was inactive: -6.09%. In the case of `CN(C)c1cc(Nc2ccc(O)cc2)c([N+](=O)[O-])c2nonc12`, the “activation” value is reported as inactive: 15.3%. In the case of `Cc1nc(SCC(=O)Nc2cc(C(N)=O)cc(C(N)=O)c2)c2c(C)c(C)sc2n1`, the Potency is reported as inconclusive: 29.2 µM [activator, partial curve]. With `CCOC(=O)N1CCN(C(=O)CCc2nc3sc4c(c3c(=O)[nH]2)CCCC4)CC1` the Potency was inconclusive: 26 µM [activator, partial curve, poor fit]. With `COc1ccc(CNC(=O)COc2cccnc2[N+](=O)[O-])cc1OC` the “activation” value was inactive: -13%.
